Earlier results on four compounds are cited in patent publication US20060130162A1, “Shrimp and the production thereof” (priority 2002, published 2006).

For the data set, the system named is shrimp. The note with it: Boyle et al. 1992b; cited from earlier work.

In the case of `Oc1c(Br)cc(Br)cc1Br` [2,4,6-tribromophenol], the “Level present in the shrimp that can impart full fresh shrimp flavor” value (“Level present” for short) was 20 ppb.
As for `Oc1c(Br)cccc1Br` [2,6-dibromophenol], the “Level present” value is given as 4 ppb.
Consider `Oc1ccccc1Br` [2-bromophenol], for which the “Level present” value is given as 20 ppb.
Regarding `Oc1cccc(Br)c1` [3-bromophenol], the “Level present” value is 40 ppb.
